Among the data in article PMC4691241, “Activation of ULK Kinase and Autophagy by GABARAP Trafficking from the Centrosome Is Regulated by WAC and GM130” (Molecular Cell, 2015) are binding values, retold here.

Protein sequences, listed by entry. Tags and fused reporters are not part of them.
UniProt Q5VTR2: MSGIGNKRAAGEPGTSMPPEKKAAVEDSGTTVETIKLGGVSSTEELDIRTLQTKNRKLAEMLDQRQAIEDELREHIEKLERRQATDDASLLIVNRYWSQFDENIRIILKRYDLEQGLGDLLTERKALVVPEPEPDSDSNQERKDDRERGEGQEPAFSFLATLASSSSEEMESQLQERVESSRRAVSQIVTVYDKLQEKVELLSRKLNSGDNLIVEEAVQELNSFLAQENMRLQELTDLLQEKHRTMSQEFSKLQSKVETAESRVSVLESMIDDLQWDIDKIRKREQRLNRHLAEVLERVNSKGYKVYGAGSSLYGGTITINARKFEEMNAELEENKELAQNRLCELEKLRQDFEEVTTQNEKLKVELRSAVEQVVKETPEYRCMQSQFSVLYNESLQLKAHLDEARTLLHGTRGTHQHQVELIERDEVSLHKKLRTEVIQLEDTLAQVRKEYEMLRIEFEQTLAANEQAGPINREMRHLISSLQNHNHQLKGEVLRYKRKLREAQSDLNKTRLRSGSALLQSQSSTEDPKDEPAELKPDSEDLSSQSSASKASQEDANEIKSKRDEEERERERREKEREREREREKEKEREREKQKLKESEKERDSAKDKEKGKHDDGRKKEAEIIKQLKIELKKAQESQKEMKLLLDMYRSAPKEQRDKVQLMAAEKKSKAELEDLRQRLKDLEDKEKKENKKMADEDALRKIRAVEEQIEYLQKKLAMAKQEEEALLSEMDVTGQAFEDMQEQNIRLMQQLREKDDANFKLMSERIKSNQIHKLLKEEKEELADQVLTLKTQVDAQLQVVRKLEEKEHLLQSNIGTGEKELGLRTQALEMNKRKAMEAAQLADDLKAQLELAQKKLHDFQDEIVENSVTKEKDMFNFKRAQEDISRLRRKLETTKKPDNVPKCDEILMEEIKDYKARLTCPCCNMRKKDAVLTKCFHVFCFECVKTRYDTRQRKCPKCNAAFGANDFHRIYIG

Results are given in words; binding and its absence hold for the method and conditions named. Binding seen in cells or lysates may run through a third protein. A yes stands for co-enrichment or nearness to the bait. Other partners may have been found.

Assay [1] concerns the target T1, WAC (WW domain-containing adaptor with coiled coil), endogenous (human (endogenous in HEK293)) (UniProt Q9BTA9).
T1 sequence: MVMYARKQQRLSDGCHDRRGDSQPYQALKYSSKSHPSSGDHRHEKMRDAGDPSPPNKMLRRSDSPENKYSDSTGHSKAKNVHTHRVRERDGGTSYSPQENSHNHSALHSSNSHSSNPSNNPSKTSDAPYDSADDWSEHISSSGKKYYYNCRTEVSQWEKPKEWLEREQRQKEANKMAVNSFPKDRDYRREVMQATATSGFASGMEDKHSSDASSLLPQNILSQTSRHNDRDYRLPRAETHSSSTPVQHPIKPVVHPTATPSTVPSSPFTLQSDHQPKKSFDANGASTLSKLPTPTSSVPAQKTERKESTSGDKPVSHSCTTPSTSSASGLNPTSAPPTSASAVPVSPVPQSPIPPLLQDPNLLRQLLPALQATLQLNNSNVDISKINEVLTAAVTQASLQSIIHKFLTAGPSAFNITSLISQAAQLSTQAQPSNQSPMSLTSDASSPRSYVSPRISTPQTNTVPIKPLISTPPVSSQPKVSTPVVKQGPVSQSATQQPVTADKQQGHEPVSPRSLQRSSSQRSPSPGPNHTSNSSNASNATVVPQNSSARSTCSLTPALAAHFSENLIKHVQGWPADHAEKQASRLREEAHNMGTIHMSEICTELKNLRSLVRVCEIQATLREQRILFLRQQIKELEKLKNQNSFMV
The assay is described as follows: affinity purification with mass spectrometry; immunoprecipitation of WAC from fed HEK293 cells; SDS-PAGE, gel slices, tryptic digestion.

In assay [2] the target is T2, WAC-FLAP (human) (UniProt Q9BTA9).
T2 sequence: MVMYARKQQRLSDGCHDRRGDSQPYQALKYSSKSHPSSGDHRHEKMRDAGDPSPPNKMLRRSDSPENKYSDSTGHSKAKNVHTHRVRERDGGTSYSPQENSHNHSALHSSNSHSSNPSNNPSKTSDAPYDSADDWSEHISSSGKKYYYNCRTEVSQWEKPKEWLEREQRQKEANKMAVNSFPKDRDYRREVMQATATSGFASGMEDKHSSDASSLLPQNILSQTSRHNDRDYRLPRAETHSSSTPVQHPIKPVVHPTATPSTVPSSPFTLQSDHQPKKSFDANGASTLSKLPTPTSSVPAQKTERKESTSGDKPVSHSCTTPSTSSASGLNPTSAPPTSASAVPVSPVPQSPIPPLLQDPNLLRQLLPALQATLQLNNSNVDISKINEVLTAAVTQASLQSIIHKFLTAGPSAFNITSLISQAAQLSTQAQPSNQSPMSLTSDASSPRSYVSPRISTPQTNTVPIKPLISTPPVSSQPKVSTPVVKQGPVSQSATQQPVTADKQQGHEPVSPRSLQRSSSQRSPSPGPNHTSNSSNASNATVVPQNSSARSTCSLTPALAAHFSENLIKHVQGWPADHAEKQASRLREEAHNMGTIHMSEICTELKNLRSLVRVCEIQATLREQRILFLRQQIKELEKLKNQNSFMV
Briefly: affinity purification with mass spectrometry; GFP-TRAP / GFP immunoprecipitation from fed HeLa WAC-FLAP cells; SDS-PAGE, gel slices, tryptic digestion.

Regarding “RNF20, endogenous (from UniProt Q5VTR2 1-975)”, the binding entry in assay [1] and in assay [2] was “binds” each time.

B1: GM130 (GOLGA2), endogenous (protein, UniProt Q08379 1-1002)
chain: MWPQPRLPPRPAMSEETRQSKLAAAKKKLREYQQRNSPGVPTGAKKKKKIKNGSNPETTTSGGCHSPEDTPKDNAATLQPSDDTVLPGGVPSPGASLTSMAASQNHDADNVPNLMDETKTFSSTESLRQLSQQLNGLVCESATCVNGEGPASSANLKDLESRYQQLAVALDSSYVTNKQLNITIEKLKQQNQEITDQLEEEKKECHQKQGALREQLQVHIQTIGILVSEKAELQTALAHTQHAARQKEGESEDLASRLQYSRRRVGELERALSAVSTQQKKADRYNKELTKERDALRLELYKNTQSNEDLKQEKSELEEKLRVLVTEKAGMQLNLEELQKKLEMTELLLQQFSSRCEAPDANQQLQQAMEERAQLEAHLGQVMESVRQLQMERDKYAENLKGESAMWRQRMQQMSEQVHTLREEKECSMSRVQELETSLAELRNQMAEPPPPEPPAGPSEVEQQLQAEAEHLRKELEGLAGQLQAQVQDNEGLSRLNREQEERLLELERAAELWGEQAEARRQILETMQNDRTTISRALSQNRELKEQLAELQSGFVKLTNENMEITSALQSEQHVKRELGKKLGELQEKLSELKETVELKSQEAQSLQQQRDQYLGHLQQYVAAYQQLTSEKEVLHNQLLLQTQLVDQLQQQEAQGKAVAEMARQELQETQERLEAATQQNQQLRAQLSLMAHPGEGDGLDREEEEDEEEEEEEAVAVPQPMPSIPEDLESREAMVAFFNSAVASAEEEQARLRGQLKEQRVRCRRLAHLLASAQKEPEAAAPAPGTGGDSVCGETHRALQGAMEKLQSRFMELMQEKADLKERVEELEHRCIQLSGETDTIGEYIALYQSQRAVLKERHREKEEYISRLAQDKEEMKVKLLELQELVLRLVGDRNEWHGRFLAAAQNPADEPTSGAPAPQELGAANQQGDLCEVSLAGSVEPAQGEAREGSPRDNPTAQQIMQLLREMQNPRERPGLGSNPCIPFFYRADENDEVKITVI
On to B1, for which the binding entry in assay [1] and in assay [2] was “binds” throughout.
